The other results are listed elsewhere or left out. Shown are side measurements of this screen, not its main read-out; they come without a call. The list favours compounds with an active or inconclusive main result. Potencies come from curve fits of mixed quality, noted in brackets.
Test: qHTS Assay to Find Inhibitors of Chronic Active B-Cell Receptor Signaling
Conditions: ABC-DLBCL IkBa-CBG/CBR reporter, luminescence ratio (green luciferase fused to IkBa over red control in TMD8 lymphoma cells), 4 h
Outline: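 Cell line TMD8 (human ABC DLBCL), stably expressing tet-inducible CBG68-IkBa fusion and CBR; IMDM/0.5% FBS; cpd up to 46 uM; dox induction, 4 h, 37C/5% CO2; dual luminescence; green/red ratio; MG132 control.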

[1] = measured here: CBR red luminescence, cell number
[2] = measured here: IkBa-CBG green luminescence

Row | SMILES | AC50 [1] | AC50 [2]
1 | Cc1ccc(CNC(=O)Cc2cccs2)cc1 | 18.4 µM [falling, partial curve] | 16.4 µM [rising, partial curve, poor fit]
2 | O=C(O)CCCn1cc(NC(=O)c2sc3ccccc3c2Cl)cn1 | 0.562 µM [falling, full curve, poor fit] | 2.82 µM [falling, partial curve, poor fit]
3 | NCCCC[C@H]1CNC(=S)N1CCCCC1CCCCC1 | 10 µM [falling, partial curve, poor fit] | 
4 | O=C(N/N=C/c1cc([N+](=O)[O-])ccc1O)c1cccc2cc[nH]c12 | 11.2 µM [falling, partial curve] | 
5 | O=C(Nc1cccnc1)c1cc2nc(C3CC3)cc(C(F)(F)F)n2n1 | 3.26 µM [rising, full curve, poor fit] | 
6 | Cc1ccc(S(=O)(=O)CCC(=O)Nc2nnc(-c3cccs3)o2)cc1 | 18.4 µM [falling, single point] | 18.4 µM [rising, partial curve, poor fit]
7 | Cc1cc(=O)[nH]c(SCC(=O)Nc2ccc3c(c2)CCC3)c1C#N | 3.66 µM [rising, single point] | 
8 | Cc1onc(-c2ccc(Cl)cc2)c1-c1ccnc(SCC(=O)Nc2ccc(C(C)C)cc2)n1 | 0.708 µM [rising, full curve, poor fit] | 
9 | Cc1ccc(-c2csc3ncnc(N4CCN(S(=O)(=O)c5cccs5)CC4)c23)cc1 | 20.6 µM [rising, partial curve, poor fit] | 
10 | Cc1cc(C)c(NC(=O)COc2ccccc2C(=O)Nc2ccc3c(c2)oc2ccccc23)c(C)c1 | 0.461 µM [falling, full curve, poor fit] | 
11 | COc1cc(/C=N/NC(=O)c2ccc3c(c2)OCO3)ccc1O | 3.55 µM [falling, partial curve] | 
12 | COc1cc(CN(C(=S)NCC(=O)N2CCCC2)C2CCCC2)cc(OC)c1OC | 10 µM [rising, partial curve, poor fit] | 
13 | CC1CCCC(NC(=S)Nc2ccc(SC(F)F)cc2)C1C (stereo unspecified) | 13 µM [falling, single point] | 
14 | N#C/C(=C/c1ccc(Sc2nc3ccccc3[nH]2)o1)c1cccc(F)c1 | 20.6 µM [falling, single point] | 
15 | CCOC(=O)c1cccc(N2C(=O)Nc3ccccc3N2O)c1 | 6.51 µM [rising, partial curve, poor fit] | 
16 | COc1ccc(CCC(=O)OCc2csc(CC(=O)Nc3ccc(C)cc3)n2)cc1OC | 0.231 µM [rising, full curve, poor fit] | 
17 | CC(=O)c1cc(C#N)c(NCc2ccccc2)nc1C | 12.6 µM [rising, partial curve, poor fit] | 
18 | O=C(NC1CCCCC1)c1ccc(S(=O)(=O)N2CCCCC2)cc1 | 32.6 µM [falling, partial curve, poor fit] | 
19 | COc1cc(/C=C2/C(=O)c3cccc([N+](=O)[O-])c3C2=O)c(Br)cc1O | 23.1 µM [falling, single point] | 
20 | Oc1c(Cl)cc(Cl)cc1C=Nc1ccc(Br)cc1 | 10 µM [falling, partial curve] | 
21 | COc1cc2c(cc1NC(=O)c1cccc([N+](=O)[O-])c1)oc1ccccc12 | 1.64 µM [rising, single point] | 

Arranged by molecular weight (ascending): three of the compounds above
Row | SMILES | AC50 [1] | AC50 [2]
2 | O=C(O)CCCn1cc(NC(=O)c2sc3ccccc3c2Cl)cn1 | 0.562 µM [falling, full curve, poor fit] | 2.82 µM [falling, partial curve, poor fit]
12 | COc1cc(CN(C(=S)NCC(=O)N2CCCC2)C2CCCC2)cc(OC)c1OC | 10 µM [rising, partial curve, poor fit] | 
8 | Cc1onc(-c2ccc(Cl)cc2)c1-c1ccnc(SCC(=O)Nc2ccc(C(C)C)cc2)n1 | 0.708 µM [rising, full curve, poor fit] | 

The list continues.

Row | SMILES | AC50 [1] | AC50 [2]
22 | CC(C)(C)NCC(O)COc1ccccc1C(=O)CCc1ccccc1 (stereo unspecified) | 3.66 µM [rising, partial curve, poor fit] | 
23 | COc1cc(C2C(C#N)=C(N)Oc3cc(O)ccc32)cc(OC)c1OC (stereo unspecified) | 3.16 µM [rising, single point] | 3.55 µM [falling, single point]
24 | COc1ccc(OC)c(NC(=O)CSc2nc3ccccc3c(=O)n2CC2CCCO2)c1 (stereo unspecified) | 3.16 µM [rising, full curve] | 
25 | COc1cc2c(cc1NC(=O)C(C)OC(=O)c1ccc(S(=O)(=O)Nc3ccccc3Cl)cc1)oc1ccccc12 (stereo unspecified) | 20 µM [falling, partial curve, poor fit] | 
26 | O=C(Nc1ccccc1C(F)(F)F)N1CCN(c2ccc3nnc(-c4ccc(F)cc4)n3n2)CC1 | 11.2 µM [falling, single point] | 
27 | CCn1c(CCCOc2ccc(Cl)cc2Cl)nnc1SCC(=O)Nc1cc(F)ccc1C | 29.1 µM [falling, single point] | 
28 | N#Cc1c(NC(=O)CSc2n[nH]c(Cc3ccccc3)n2)oc(-c2ccccc2)c1-c1ccccc1 | 28.2 µM [falling, single point] | 
29 | O=C(CCC1CCCN(C(=O)c2ccoc2)C1)NCc1ccc(F)c(F)c1 (stereo unspecified) | 35.5 µM [rising, single point] | 
30 | NC(=O)c1ccccc1NC(=O)COc1ccc2c(c1)OCO2 | 14.1 µM [falling, single point] | 
31 | CCCc1cc(=O)oc2c(CN3CCCC3)c(O)ccc12 | 3.16 µM [rising, full curve, poor fit] | 
32 | CN(C)S(=O)(=O)c1cccc(-c2nn(-c3ccccc3)cc2/C=C2\SC(=S)NC2=O)c1 | 0.517 µM [rising, full curve] | 
33 | Cc1ccc(OCC(=O)NCCO)c(Br)c1 | 35.5 µM [falling, single point] | 35.5 µM [rising, partial curve, poor fit]
34 | Cc1nc(SCC(=O)c2cc3ccccc3oc2=O)c(C#N)c(C)c1C(=O)Nc1ccccc1 | 17.8 µM [falling, partial curve, poor fit] | 
35 | NS(=O)(=O)c1cccc(NC(=O)c2cccc(Oc3ccccc3)c2)c1 | 20 µM [rising, partial curve, poor fit] | 
36 | O=C(Nc1ccc2[nH]c(=S)sc2c1)Nc1ccccc1F | 10 µM [falling, partial curve] | 
37 | Cn1c(=O)oc2cc(S(=O)(=O)Nc3ccc(O)cc3)ccc21 | 6.31 µM [falling, single point] | 
38 | O=C1c2oc3ccc(Cl)cc3c(=O)c2C(c2cccc(Br)c2)N1CCO (stereo unspecified) | 15.8 µM [falling, single point] | 
39 | O=C1CC(NNc2ccccc2)C(=O)N1c1ccccc1 (stereo unspecified) | 14.6 µM [falling, partial curve, poor fit] | 
40 | O=C(CSc1n[nH]c(-c2ccccc2)n1)N1CCOCC1 | 35.5 µM [falling, single point] | 
41 | CCCCN1/C(=C/c2cccc[n+]2C)Sc2cc(NC(C)=O)ccc21 | 12.6 µM [rising, single point] | 
42 | CCCCOc1ccc(/C(O)=C(\C#N)c2nc3ccccc3[nH]2)cc1 | 17.8 µM [rising, partial curve, poor fit] | 

Row | SMILES | AC50 [1] | AC50 [2]
43 | O=C(O)CCCCCN1C(=O)CSC1=S | 0.631 µM [falling, full curve] | 
44 | CC(C)(C)C(=O)NNC(=O)c1cnccn1 | 11.2 µM [rising, single point] | 
45 | NC(=O)c1nc(C2CCCCC2)nc2c1[nH]c(=O)n2-c1ccc(F)cc1 | 3.16 µM [falling, partial curve, poor fit] | 
46 | O=C(Nc1nnc(S(=O)(=O)N2CCOCC2)s1)c1ccc(F)cc1 | 1.58 µM [rising, full curve] | 
47 | O=C(CNCc1ccc(Cl)cc1)Nc1ccc(C(=O)N2CCCCCC2)cc1 | 11.2 µM [falling, partial curve] | 
48 | COc1ccccc1OC(=O)c1cc2ccccc2oc1=O | 12.6 µM [rising, partial curve, poor fit] | 
49 | O=C(CNS(=O)(=O)c1ccccc1)NCc1ccccn1 | 5.8 µM [falling, full curve] | 
50 | CCn1c2ccccc2c2cc(NC(=O)COC(=O)c3ccc(O)cc3)ccc21 | 1.84 µM [rising, partial curve, poor fit] | 
51 | O=C(/C=C/c1ccc2c(c1)OCO2)NCc1ccco1 | 20.6 µM [falling, single point] | 
52 | COc1cccc(NC(=O)COC(=O)CNC(=O)C2CCCCC2)c1 | 14.6 µM [rising, partial curve, poor fit] | 
53 | Cc1c(F)cccc1NS(=O)(=O)c1ccc2c(c1)c(C)cc(=O)n2C | 14.1 µM [rising, single point] | 
54 | CC(C)(C)c1ccc(-c2nnc(SCCC#N)n2C2CCCC2)cc1 | 29.1 µM [falling, single point] | 
55 | COc1ccc(C(=O)Nc2n[nH]c(-c3ccncc3)n2)cc1 | 7.08 µM [falling, full curve] | 
56 | O=C(NCC(c1ccco1)N1CCCC1)c1cccc(S(=O)(=O)Nc2ccc(Br)cc2)c1 (stereo unspecified) | 14.1 µM [falling, partial curve, poor fit] | 
57 | Cc1cc(C2=NNC(=Nc3ccccc3)SC2)c(C)n1C | 25.1 µM [falling, single point] | 
58 | CCN(C(=O)COC(=O)c1oc2ccc(OC)cc2c1C)C1CCS(=O)(=O)C1 (stereo unspecified) | 3.66 µM [falling, partial curve, poor fit] | 
59 | CN(CC(=O)Nc1ccccc1C(F)(F)F)C(=O)CCc1nc2sc3c(c2c(=O)[nH]1)CCCC3 | 5.62 µM [rising, partial curve, poor fit] | 
60 | COc1cc(CC(=O)OCC(=O)c2c[nH]c3ccccc23)cc(OC)c1OC |  | 18.4 µM [falling, single point]
61 | COC(=O)c1c(NC(=O)COC(=O)[C@@H](NS(=O)(=O)c2ccc(C)cc2)C(C)C)sc2c1CCC2 | 2.31 µM [falling, full curve] | 
